Source: PubChem BioAssay AID504834 (National Center for Advancing Translational Sciences (NCATS), 2011)
The campaign covered roughly 320,000 compounds. About 22,000 (6.9%) were called active. The inconclusive results got no clear call from the source; some entries with a clear call stand among them for comparison. The call rests on the fitted dose curve; in most records, active means well fitted inhibition curve with a large enough effect; inconclusive means small, poorly fitted or top-dose-only effect, or another doubt; inactive means no such curve, though single readings can be large or run the other way. Where the call is inconclusive, the potency comes from a doubtful curve fit.

Experiment: Primary qHTS for delayed death inhibitors of the malarial parasite plastid, 96 hour incubation
Conditions: P. falciparum luciferase reporter growth; series mostly up to 28.7 µM; activity change, negative = inhibition: at the top concentration
Outline: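 Cell-based qHTS: luciferase-tagged P. falciparum in erythrocytes (2% hematocrit, 0.05% parasitemia final) incubated with compounds for 96 hours, 37 C, 5% CO2; luciferase detection reagent then added and luminescence measured.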
On the % scale 0 is the no-effect control and ±100 the full control effect; potency means the concentration at half of the fitted maximal effect.

Structure (SMILES) | activity change, negative = inhibition | Potency
COc1ccc(S(=O)(=O)NCCOc2cccc3cccnc23)cc1OC | inactive: 14.7% | –
O=C(NNC(=O)c1ccc(O)cc1O)c1ccc(Cl)cc1 | – | inconclusive: 0.104 µM [inhibitor, full curve, poor fit]
NS(=O)(=O)c1ccc(CCNS(=O)(=O)Cc2ccc(Cl)cc2)cc1 | – | active: 13.1 µM
C=C(C)Cn1c(SCCN2CCOCC2)nc2c1c(=O)[nH]c(=O)n2C | inactive: -13.7% | –
CCc1ccc(OCCCC(=O)Nc2nnc(C3CCCO3)s2)cc1 (stereo not drawn) | – | active: 11.7 µM
CCOc1ccc(NC(=O)CN(C)C(=O)c2c(-c3ccccc3Cl)noc2C)cc1OCC | – | inconclusive: 4.65 µM [inhibitor, partial curve, poor fit]
Cc1ccc(NS(=O)(=O)c2ccc(CCC(=O)NCCCOC(C)C)cc2)cc1 | – | inconclusive: 4.65 µM [inhibitor, partial curve, poor fit]
CCCCCOC(=O)Cn1c(N2CCCCCC2)nc2c1c(=O)[nH]c(=O)n2C | – | inconclusive: 18.5 µM [inhibitor, single point]
CCCOc1ccccc1OCC(=O)Nc1ccc(S(=O)(=O)N2CCCC2)cc1 | – | inconclusive: 11.7 µM [inhibitor, single point]
O=C(c1cccs1)c1coc2ccc(O)c(CN(CCO)CCO)c12 | – | active: 2.08 µM
O=C(O)c1cc(=O)[nH]c(=O)[nH]1 | – | inconclusive: 16.9 µM [inhibitor, single point]
CCCCNC(=S)NC(=O)c1ccccc1Br | inactive: -29.3% | –
COc1cc(C(=O)N2CCC(n3cnc4cc(F)ccc43)CC2)cc(OC)c1OC | – | inconclusive: 13.1 µM [inhibitor, partial curve, poor fit]
Cc1cccc(-c2nnc(SCC(=O)N3CCOCC3)o2)c1 | – | inconclusive: 0.147 µM [inhibitor, full curve]
OCCn1ccc(-c2ccccc2OCc2ccc(F)cc2)n1 | – | inconclusive: 18.5 µM [inhibitor, single point]
COc1cc2[nH]c(=O)n(CCC(=O)N3CCC(N4CCCCC4)CC3)c(=O)c2cc1OC | – | inconclusive: 14.7 µM [inhibitor, partial curve, poor fit]
Cc1nn(-c2ccccc2)c(N2CCCC2)c1/C=N/NC(=O)c1ccccc1O | – | active: 13.1 µM
NC(=S)NCc1cccnc1 | inactive: 27.8% | –
CCC(CC)C(=O)Nc1cc(C(=O)OC)cc(C(=O)OC)c1 | – | inconclusive: 18.5 µM [inhibitor, single point]
O=C(N/N=C/c1cccnc1)c1cccc(F)c1 | – | inconclusive: 16.5 µM [inhibitor, single point]
O=C(Nc1ccnc(-c2ccncc2)n1)C1CC1 | inactive: -15% | –
CC(Sc1nncn1C)C(=O)Nc1ccc(Cl)cn1 (stereo not drawn) | inactive: 48.4% | –
Nc1nc(SCC(=O)NCc2ccc3c(c2)OCO3)n[nH]1 | – | inconclusive: 13.1 µM [inhibitor, partial curve, poor fit]
Nc1nc(NCc2ccco2)nn1-c1ccccc1 | – | inconclusive: 8.28 µM [inhibitor, partial curve]
CCOc1ccccc1C1C(C#N)=C(SCC(=O)OC)NC(=O)C1C(=O)OC (stereo not drawn) | – | inconclusive: 18.5 µM [inhibitor, single point]

Structure (SMILES) | activity change, negative = inhibition | Potency
Cc1cc(C(=O)N/N=C/c2c(C)nn(-c3ccccc3)c2Cl)n[nH]1 | inactive: -7.33% | –
CC(=O)c1ccc(N2CCN(C(=O)[C@H](C)NC(=O)c3ccccc3Cl)CC2)cc1 | – | inconclusive: 5.22 µM [inhibitor, partial curve, poor fit]
COc1cccc(C2/C(=C(\O)c3ccc(OC)c(OC)c3)C(=O)C(=O)N2c2cc(C)on2)c1 (stereo not drawn) | – | active: 5.22 µM
CC(=O)Nc1ccc(NC(=S)NC(=O)/C=C/c2ccco2)cc1 | – | inconclusive: 14.7 µM [inhibitor, partial curve, poor fit]
Cc1ccc(CN2CCNC(=O)C2CC(=O)NC2CCCCCC2)cc1 (stereo not drawn) | – | inconclusive: 0.0185 µM [inhibitor, full curve, poor fit]
COc1cc(/C=C/C(=O)OCC(=O)Nc2ccc([N+](=O)[O-])cc2)ccc1O | – | inconclusive: 14.7 µM [inhibitor, single point]
CN(C)CC(C)(C)CNS(=O)(=O)c1cccc(Cl)c1Cl | inactive: 19.9% | –
O=C1CSC2(CN3CCC2CC3)N1 (stereo not drawn) | – | inconclusive: 0.147 µM [inhibitor, full curve, poor fit]
CCOc1ccccc1N(C(=O)c1ccccc1Cl)C1=NC(C)(C)CS1 | – | inconclusive: 8.28 µM [inhibitor, partial curve]
O=[N+]([O-])c1cccc(-c2ccc(/C=N/NC(=S)Nc3cccc(F)c3)o2)c1 | – | inconclusive: 14.7 µM [inhibitor, single point]
COc1cccc(C(=O)NCCS(=O)(=O)NCc2ccco2)c1 | inactive: 66.4% | –
Cc1ccc(-n2nc3c(c2NC(=O)/C=C\c2ccc4c(c2)OCO4)CSC3)c(C)c1 | – | active: 13.1 µM
CC(=O)c1c(C)[nH]c(C(=O)OCC(=O)Nc2c(C)cccc2C)c1C | – | inconclusive: 18.5 µM [inhibitor, single point]
CC(=O)NCCCCCC(=O)O | inactive: 5.3% | –
COC(=O)c1sccc1NC(=O)Nc1ccccc1Cl | – | inconclusive: 18.5 µM [inhibitor, single point]
CCCc1nnc(NC(=O)CCC(=O)N2CCN(Cc3ccccc3)CC2)s1 | – | inconclusive: 18.5 µM [inhibitor, single point]
CC(C)(C)Cc1nc(-c2ccccn2)no1 | inactive: 4.41% | –
Cc1ccc(S(=O)(=O)N(CC(O)CN2CCCC2)c2ccccc2)cc1 (stereo not drawn) | inactive: 83.1% | –
O=S(=O)(Nc1cccc(-c2cn3c(n2)SCC3)c1)c1ccccc1F | – | inconclusive: 10.4 µM [inhibitor, single point]
Cc1c(C(=O)O)oc2ccc(S(=O)(=O)NCCC3=CCCCC3)cc12 | – | inconclusive: 1.17 µM [inhibitor, partial curve, poor fit]
COc1ccc(NC(=O)CSc2nnc(-c3ccncc3)n2C)cc1 | – | inconclusive: 10.4 µM [inhibitor, partial curve, poor fit]
O=C(Cc1cccs1)NCCSc1c(-c2ccc(Cl)cc2)[nH]c2ccccc12 | – | inconclusive: 18.5 µM [inhibitor, single point]
COC(=O)c1c(C(=O)OC)c(-c2ccc(C)cc2)n2c1CS(=O)C2 (stereo not drawn) | – | inconclusive: 18.5 µM [inhibitor, single point]
COc1ccccc1CNC(=O)C(=O)NCCC1CCCCN1S(=O)(=O)c1cccs1 (stereo not drawn) | – | active: 11.7 µM
[O-][n+]1c2ccc3nonc3c2nn1-c1ccccc1Cl | inactive: -14.9% | –

Retrieved one by one from above, four records:
Structure (SMILES) | activity change, negative = inhibition | Potency
CCCCCOC(=O)Cn1c(N2CCCCCC2)nc2c1c(=O)[nH]c(=O)n2C | – | inconclusive: 18.5 µM [inhibitor, single point]
CCc1ccc(OCCCC(=O)Nc2nnc(C3CCCO3)s2)cc1 (stereo not drawn) | – | active: 11.7 µM
NC(=S)NCc1cccnc1 | inactive: 27.8% | –
Cc1ccc(S(=O)(=O)N(CC(O)CN2CCCC2)c2ccccc2)cc1 (stereo not drawn) | inactive: 83.1% | –

(continued)

Structure (SMILES) | activity change, negative = inhibition | Potency
CCCCC[n+]1cccc2c3ccccc3ccc21 | inactive: -26.5% | –
Cc1onc(-c2ccccc2)c1CNC(=O)Nc1ccc(F)cc1F | – | inconclusive: 18.5 µM [inhibitor, single point]
O=C(Cn1c(=O)sc2ccccc21)Nc1nc2c(s1)CCCC2 | – | inconclusive: 18.5 µM [inhibitor, single point]
Brc1cccc(C2CC(c3ccccc3)n3nnnc3N2)c1 (stereo not drawn) | – | inconclusive: 13.1 µM [inhibitor, single point]
CSc1ccc(S(=O)(=O)NCC(=O)OCC(=O)N(Cc2ccccc2)C(C)C)cc1[N+](=O)[O-] | inactive: -1.02% | –
COc1ccccc1-n1cnc2cc(C(=O)NCCCN3CCOCC3)ccc21 | – | inconclusive: 0.104 µM [inhibitor, full curve, poor fit]
COC(=O)C(/C=N/O)NC(=O)c1ccccc1 (stereo not drawn) | – | inconclusive: 14.7 µM [inhibitor, partial curve, poor fit]
COc1ccc(CNC(=O)COC(=O)c2cc(-c3ccco3)nc3ccccc23)cc1 | inactive: 3.16% | –
CC1(C(=O)NC23CC4CC(CC(C4)C2)C3)CC1(Cl)Cl (stereo not drawn) | – | inconclusive: 18.5 µM [inhibitor, single point]
CCCCCC1CC(=O)N(Cc2ccccc2)C(=O)N1 (stereo not drawn) | – | inconclusive: 18.5 µM [inhibitor, single point]
O=C1ON=C(c2ccccc2)/C1=C/c1cccnc1 | inactive: -14.8% | –
CCn1c(NC(=O)Nc2cccc(C)c2C)cc2sccc21 | – | active: 13.1 µM
CC(=O)Nc1nc(C)c(C(C)(C)C)s1 | – | inconclusive: 0.165 µM [inhibitor, full curve, poor fit]
Cc1ccc(NC(=O)CSc2nnc(Cc3cccn3C)n2-c2ccc(F)cc2)c(C)c1 | – | active: 9.28 µM
CCCNC(=O)C(Cc1ccc(F)cc1)NC(=O)c1ccccc1 (stereo not drawn) | – | inconclusive: 1.65 µM [inhibitor, partial curve, poor fit]
COc1ccc(Nc2cc(=O)n(C3CCCCC3)c(=O)[nH]2)c(OC)c1 | – | inconclusive: 7.38 µM [inhibitor, single point]
O=C(NNC(=O)C12CC3CC(CC(C3)C1)C2)c1cnccn1 | – | inconclusive: 18.5 µM [inhibitor, single point]
COc1ccccc1OCC(=O)NNC(=O)c1cccs1 | inactive: 52.6% | –
Cc1sc(NC(=O)C2CSC3(C)CCC(=O)N23)nc1-c1ccc(F)cc1 (stereo not drawn) | – | inconclusive: 2.62 µM [inhibitor, full curve, poor fit]
COc1ccc(NC(=O)CSc2nnc(-c3cccnc3)n2Cc2ccco2)c(OC)c1 | – | inconclusive: 18.5 µM [inhibitor, partial curve, poor fit]
Cc1ccc(S(=O)(=O)N2CCN(CC(=O)N/N=C/c3ccco3)CC2)cc1 | inactive: -14.6% | –
COc1ccc(CN(C(=O)c2snc(C(N)=O)c2N)C(C(=O)NC2CCCC2)c2ccc(OC)cc2)cc1 (stereo not drawn) | inactive: -29.5% | –
O=C(NC(=S)Nc1ccc(C(=O)N2CCOCC2)cc1)c1ccc([N+](=O)[O-])cc1 | – | inconclusive: 20.8 µM [inhibitor, partial curve, poor fit]
